From PMC4486695
Results are given in words; binding and its absence hold for the method and conditions named. For some assays here: Binding seen in cells or lysates may run through a third protein. Some entries that bind do so weakly or less than the wild type. Tags and fused reporters may be left off the sequences shown.

Sequences of proteins named here, by UniProt entry; tags and fusion partners are left off.
UniProt P03372: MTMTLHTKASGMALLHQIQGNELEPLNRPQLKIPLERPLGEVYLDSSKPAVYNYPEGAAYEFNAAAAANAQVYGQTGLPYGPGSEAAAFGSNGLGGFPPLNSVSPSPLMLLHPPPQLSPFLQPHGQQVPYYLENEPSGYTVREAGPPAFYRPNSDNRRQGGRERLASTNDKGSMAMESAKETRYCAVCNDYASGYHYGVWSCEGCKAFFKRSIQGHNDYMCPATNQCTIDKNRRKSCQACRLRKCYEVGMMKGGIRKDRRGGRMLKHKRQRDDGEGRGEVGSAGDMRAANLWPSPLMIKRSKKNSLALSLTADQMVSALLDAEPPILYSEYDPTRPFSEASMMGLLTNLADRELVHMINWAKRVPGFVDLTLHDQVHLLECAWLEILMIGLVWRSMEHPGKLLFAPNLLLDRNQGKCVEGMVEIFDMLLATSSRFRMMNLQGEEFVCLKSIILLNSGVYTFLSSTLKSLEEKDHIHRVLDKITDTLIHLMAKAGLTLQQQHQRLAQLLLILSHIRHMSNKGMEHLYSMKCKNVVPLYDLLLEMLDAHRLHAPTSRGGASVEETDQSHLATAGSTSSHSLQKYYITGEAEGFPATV

Assays:
GST-ETS-1 = target: T1, GST-ETS-1 (UniProt P14921); assay: pull-down; GST fusion protein bound to glutathione-Sepharose beads incubated with purified FLAG-tagged protein in 500 μl binding buffer at 4 °C for 4 h, in the presence or absence of 100 nM E2; washed three times; SDS-PAGE and western blot; both purified
T1 sequence: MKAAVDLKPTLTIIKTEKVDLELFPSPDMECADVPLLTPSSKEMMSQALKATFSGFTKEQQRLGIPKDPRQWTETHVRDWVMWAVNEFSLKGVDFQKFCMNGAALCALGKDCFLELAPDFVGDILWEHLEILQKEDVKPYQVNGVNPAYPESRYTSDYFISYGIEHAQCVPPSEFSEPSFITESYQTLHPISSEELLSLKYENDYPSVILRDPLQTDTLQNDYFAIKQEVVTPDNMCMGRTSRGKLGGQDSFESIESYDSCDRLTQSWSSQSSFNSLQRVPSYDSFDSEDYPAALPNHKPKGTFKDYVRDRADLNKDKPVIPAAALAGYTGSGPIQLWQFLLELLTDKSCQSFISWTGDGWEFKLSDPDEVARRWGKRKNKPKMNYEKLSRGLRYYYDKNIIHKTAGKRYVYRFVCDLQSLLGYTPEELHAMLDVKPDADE

FLAG-ETS-1 = target: T2, FLAG-ETS-1 (UniProt P14921); assay: co-IP; SH-SY5Y cells transfected with FLAG-ERα or FLAG-ETS-1, lysed after 18-24 h; precipitated with anti-FLAG monoclonal antibody, blotted with anti-ETS-1 or anti-ERα; treated without or with 100 nM E2
T2 sequence: T1 sequence

## FLAG-ERα (purified) (from UniProt P03372 1-595) (receptor)
GST-ETS-1
  binding: binds

## endogenous ERα (estrogen receptor α) (from UniProt P03372 1-595)
FLAG-ETS-1
  binding: binds
